# PubChem BioAssay AID504764 – Drosophila RNAi Screening Center – 2011
# Test: 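Knock-downs that raise or lower a Notch target reporter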 (primary screen)
# System: Drosophila Kc167 cells
# Reagents: long dsRNA against Drosophila genes
# Timing: about 5 days (4 days dsRNA, then 24 h after transfection)
# Conditions: transfection of constitutively active membrane-tethered Notch lacking the extracellular domain, read 24 h later
# Measured: 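Firefly luciferase from an E(spl)m3 reporter with active Notch, plus control-promoter and uninduced reporter wells for normalisation; unnormalised counts, duplicate wells a and b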
# Scale: induced reporter light, run 1, well a and induced reporter light, run 1, well b: higher = more light from the Notch target reporter with active Notch; control promoter light, run 1, well a and control promoter light, run 1, well b: higher = more light from the viral control promoter (cell number, transfection, viability); uninduced reporter light, run 1, well a: higher = more light from the Notch target reporter without active Notch
# Rule for the call: 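Wells with low control signal or poorly matching duplicates excluded; duplicates averaged; per source plate, z beyond ±2 for induced/control log2 ratio or beyond ±1.8 for induced/uninduced marks a hit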
# Meaning of the calls: active = modifier hit (raised or lowered Notch signal); inactive = not a hit
# The screen tested about 22,000 reagents; shown is an unselected part of those that have a named target and a result. Of all reagents, 403 (1.9%) are marked active. 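Unnormalised raw counts per well; ratio z-scores behind the hit calls and whether each hit raises or lowers signal are not deposited.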 A number with no mark means an inactive call. A plus sign joins genes that one reagent is predicted to hit. The record does not give: the amount of reagent.
Target gene,amplicon,"induced reporter light, run 1, well a","induced reporter light, run 1, well b","control promoter light, run 1, well a","control promoter light, run 1, well b","uninduced reporter light, run 1, well a"
fabp + sea,DRSC16114,1.45e5,1.43e5,1.06e5,86175,10430
fabp + sea,DRSC16115,1.53e5,1.57e5,1.20e5,1.04e5,10395
CG34337,DRSC18435,1.19e5,1.27e5,2.19e5,1.95e5,8785
CG13137,DRSC02234,1.26e5,1.21e5,71185,90855,17785
CG42717,DRSC09411,2.35e5,2.10e5,2.67e5,3.18e5,22235
CG3847,DRSC17444,74505,78725,83160,73125,5960
CG3847,DRSC18327,1.94e5,1.89e5,1.88e5,1.89e5,15725
CG44838,DRSC10330,4635,3920,4950,2610,2860
CG44838,DRSC10371,79575,1.15e5,62820,29640,8990
comr,DRSC04138,37335,30120,33050,31370,2205
GAPcenA,DRSC10771,1.63e5,1.34e5,1.26e5,1.35e5,6400
CG13607,DRSC14610,1.65e5,1.53e5,2.25e5,2.09e5,12555
CG15431,DRSC00446,1.77e5,1.65e5,1.49e5,1.66e5,12020
Coq4 + frc,DRSC10381,1.39e5,1.00e5,2.04e5,1.47e5,4815
Coq4 + frc,DRSC10382,2.40e5,1.95e5,2.91e5,2.73e5,7850
CG5937,DRSC18392,1.11e5,1.09e5,1.42e5,1.49e5,6090
MED1,DRSC11808,89745,1.02e5,65300,69870,8410
CG3526,DRSC17240,61030,84645,87460,89230,5280
CG3526,DRSC18636,1.09e5,1.09e5,1.67e5,1.78e5,7430
gdl-ORF39 + gdl,DRSC11350,1.73e5,1.36e5,2.63e5,1.76e5,11065
CG6978,DRSC18409,83835,86470,1.39e5,1.06e5,6445
CG10428,DRSC02054,2.03e5,2.05e5,1.72e5,1.71e5,14390
wrapper,DRSC04723,87825,78120,63915,76385,6015
mRpS18B,DRSC02107,2.41e5,2.14e5,2.43e5,2.68e5,17460
CG5781,DRSC02893,1.34e5,1.61e5,1.31e5,1.25e5,12790
CG1529,DRSC20515,87670,1.05e5,1.20e5,1.21e5,10660
CG2701,DRSC18590,1.77e5,1.63e5,2.41e5,2.29e5,11400
WDR79,DRSC03159,53950,59050,68580,80245,4950
CG15522,DRSC15059,1.06e5,83580,1.34e5,1.52e5,7240
dwg,DRSC18766,1.91e5,1.97e5,2.40e5,3.00e5,13570
CG6432,DRSC16039,1.41e5,1.72e5,2.06e5,2.22e5,13940
CalpC,DRSC19873,83210,78510,99420,99525,11245
Srrm1,DRSC09835,1.56e5,1.62e5,1.62e5,1.58e5,6935
CG10993,DRSC19362,53275,57825,64315,66205,6770
